The values below come from patent publication US4873342A, “Dipeptide derivative and synthesis and use thereof” (Suntory Limited, priority 1985, dated 1989).

The series deals with Experimental Amnesia caused in Rats by Scopolamine. In words: Preventive effect against experimental amnesia caused in rats by scopolamine (passive avoidance, intraperitoneal administration). To be noted: i.p., scopolamine 3 mg/kg i.p. after learning. The format is in vivo, Wister male rats. How it is done: Several of the anti-prolyl endopeptidase compounds according to the present invention were checked for their ability to prevent the inhibition of long-term memory fixation by scopolamine. […] One hour after the administration, electric shocks were applied to the rats so that they would acquire passive avoidance learning. Immediately thereafter, scopolamine was administered intraperitoneally to each rat in an amount of 3 mg per kg of body weight.
The results of the test were assessed both 24 hours and 48 hours after the administration of scopolamine. The number of amnesic rats and of sound rats was counted for each of the control group (rats to which the test compounds were not administered but to which only scopolamine and physiological saline were administered intraperitoneally) and the treated group (rats to which both the test compound and scopolamine were administered).

With `O=C[C@@H]1CCCN1C(=O)[C@@H]1CCCN1C(=O)CCCc1ccccc1` [SUAM 1231, N--(4-phenyl)butanoyl--Pro--Pro--CHO], under “20 μg/kg”, the “Learning: Initial avoidance time” value is 3.1 s and the “Learning: No. of avoidances during learning” value amounted to 2.4.
On to `CC(C)[C@H](NC(=O)CCCc1ccccc1)C(=O)N1CCC[C@H]1C=O` [SUAM 1117, N--(4-phenyl)butanoyl--Val--Pro--CHO], for which the “Learning: Initial avoidance time” value came to 1.9 s (25 μg/kg), 3.2 s (100 μg/kg), 2.4 s (250 μg/kg) and 3.8 s (1 mg/kg). Also, the “Learning: No. of avoidances during learning” value runs as follows: (25 μg/kg) 2.2; (100 μg/kg) 3.2; (250 μg/kg) 2.4; (1 mg/kg) 2.2.
For `CCCCC(NC(=O)CCCc1ccccc1)C(=O)N1CCCC1C=O` (stereo not shown) [SUAM 1333, N--(4-phenyl)butanoyl--norLeu--Pro--CHO], where the note is “20 μg/kg”, the “Learning: Initial avoidance time” value came to 1.7 s and the “Learning: No. of avoidances during learning” value was 2.3.
Regarding `C[C@H](NC(=O)CCCc1ccccc1)C(=O)N1CCC[C@H]1C=O` [SUAM 1110, N--(4-phenyl)butanoyl--Ala--Pro--CHO], for the setting “250 μg/kg”, the “Learning: Initial avoidance time” value came out at 5.2 s and the “Learning: No. of avoidances during learning” value turned out to be 3.0. For the same compound, under “1 mg/kg”, the “Learning: Initial avoidance time” value stood at 3.8 s and the “Learning: No. of avoidances during learning” value was 1.6.
Take `CC(C)CC(NC(=O)CCCc1ccccc1)C(=O)N1CCCC1C=O` (stereo not shown) [SUAM 1115, N--(4-phenyl)butanoyl--Leu--Pro--CHO]: the “Learning: Initial avoidance time” value runs as follows: (25 μg/kg) 2.7 s; (100 μg/kg) 2.5 s; (250 μg/kg) 1.5 s. In addition, the “Learning: No. of avoidances during learning” value is, setting by setting: (25 μg/kg) 2.4; (100 μg/kg) 3.0; (250 μg/kg) 3.0.
